± gives the standard deviation of the averaged measurements. The list shows a part of the results.

In the assay the test system is Madurella mycetomatis MM55. Nature of the assay: metabolic activity (growth) relative to DMSO growth control; higher = more fungal growth. The conditions noted are these: 1 µM.
Regarding `O=C(O)C(F)(F)F.O=c1c2cnc(Nc3ccc(N4CCCCC4)cc3)nc2n2ccnc2n1-c1ccccc1Cl`, the metabolic activity was 118 ± 20%.
In the case of `CCn1c(-c2nonc2N)nc2c(C#CC(C)(C)O)nc(OCCNC)cc21.Cl` it was 125 ± 24%; in that of `COc1cc(N2CCN(C)CC2)ccc1Nc1ncc2c(n1)N(C)c1ccccc1C(=O)N2`, 85.7 ± 12%; in that of `Cc1ccc(-n2nc(C(C)(C)C)cc2NC(=O)Nc2ccc(OCCN3CCOCC3)cc2)cc1`, 123 ± 19%.
In the case of `Cc1ccc2c(-c3ccnc(Nc4ccc5c(c4)OCCO5)n3)c(-c3ccc(C(F)(F)F)cc3)nn2n1` it was 96.8 ± 15%; in that of `Cc1nc(Nc2cnn(C3CCNCC3)c2)nc2c1N(C)C(=O)c1cc3ccccc3cc1N2C`, 105 ± 36%; in that of `CCn1c2cc(Cl)c(F)cc2c(=O)c2c(=O)o[nH]c21`, 92.6 ± 28%.
In the case of `O=C1NC(=O)C(c2c[nH]c3sccc23)=C1c1nc(N2CCN(CCO)CC2)nc2ccccc12` it was 98.2 ± 29%; in that of `COc1cc(Nc2cnc(C#N)c(O[C@H](C)CN(C)C)n2)ncc1-c1cnn(C)c1`, 97.4 ± 22%.
As to `CCOc1nc(C(=O)NCc2ccc(S(C)(=O)=O)cc2)cc(N)c1C#N`, the metabolic activity amounted to 99.5 ± 21%.
Under `NS(=O)(=O)c1ccc(Nc2ncc(-c3ccccc3)o2)cc1` stands 79.3 ± 3.6%; under `Cc1cc(-c2ccc3c(c2)CC[C@@H](N[C@@H](C)c2ccccc2)C3)cnc1N`, 93.1 ± 28%; under `COc1cc(C2CCNCC2)ccc1Nc1nc(Cc2ccccc2F)n2cnnc2c1C(N)=O.Cl`, 94.6 ± 22%.

Source of the values: the supplement of paper PMC12425257.
